In publication doi:10.1101/2020.10.01.322123 (bioRxiv, 2020):
No constants are given. Whether binding was seen depends on the method and setting. For some assays here: Binding seen in cells or lysates may run through a third protein. Some entries that bind do so weakly or less than the wild type. For some assays here: Where a sequence is shown, tags or fusion partners need not be part of it.

Assays:
[1] = target: CFP- and RFP-tagged FGFR2^C1 (UniProt P21802); experiment: FRET or BRET
GST-CT^C1 [2] = target: T1, GST-CT^C1 (UniProt P21802); experiment: BLI
T1 sequence: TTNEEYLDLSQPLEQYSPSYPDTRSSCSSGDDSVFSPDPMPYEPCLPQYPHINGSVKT

GST-CT^C1 [3] = target: T1, GST-CT^C1; experiment: pull-down
JM-KD^K518I = JM-KD^K518I (UniProt P21802); experiment: SEC
JM-KD^Y657/658F = JM-KD^Y657/658F (UniProt P21802); experiment: SEC

For “CFP- and RFP-tagged FGFR2^C1 (from UniProt P21802-3 22-822) (receptor)”, the binding [1] was “binds”.
For GRB2 (from UniProt P62993 1-217), the binding (GST-CT^C1 [2]) was “binds” and the binding (GST-CT^C1 [3]) was “binds”.
In the case of “JM-KD^K518I (from UniProt P21802-3 414-764) (domain or fragment)”, the binding (JM-KD^K518I) is reported as “no binding (tested: 60 - 80 µM)”.
With “JM-KD^Y657/658F (from UniProt P21802-3 414-764) (domain or fragment)” the binding (JM-KD^Y657/658F) was “no binding (tested: 60 - 80 µM)”.
